Assay results

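293T-iDUX4 cells carrying a ZSCAN4-driven Gaussia luciferase and a tet-on Italica luciferase control; the gap between the two luminescence signals is read after 24 h. The test concentration is not given here. Percent difference between the Gaussia and Italica channels; more negative values mean more selective suppression of the DUX4 reporter, and higher values mean less activity.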

Values are in %. How 0% and 100% were set is not given here. Common to all entries: measured here: selective DUX4 reporter inhibition. This is a side read-out of the assay, for part of the compounds, not drawn at random.

| SMILES | Gaussia minus Italica difference (%) |
|---|---|
| `CCCNC(=O)N1[C@H](CO)[C@H](c2ccccc2-c2ccccc2F)[C@@H]1C#N` | 5.696 |
| `COc1ccc(C#Cc2ccc3c(c2)[C@H]2[C@H](CCN2C(=O)CN2CCOCC2)[C@H](CO)N3C)cc1` | -24.99 |
| `C[C@H](CO)N1C[C@H](C)[C@@H](CN(C)Cc2ccc(O)cc2)OCc2ccccc2-c2c(n(C)c3ccccc23)C1=O` | -12.41 |
| `COc1ccc2c3c([nH]c2c1)[C@H](CO)N(C(=O)CN(C)C)CC31CCN(Cc2ccccc2)CC1` | 11.67 |
| `O=C(c1cccc(F)c1)N1CCCCN2[C@H](CO)[C@@H](c3ccc(/C=C/c4ccccc4)cc3)[C@H]2C1` | -6.24 |
| `O=C(C[C@H]1C[C@@H]2c3cc(NC(=O)Nc4ccc(C(F)(F)F)cc4)ccc3O[C@@H]2[C@@H](CO)O1)NCCc1ccccc1` | -3.186 |
| `CC(C)NC(=O)N1[C@H](CO)[C@@H](c2ccccc2)C12CN(Cc1ccccc1)C2` | -11.32 |
| `C[C@@H]1CN([C@@H](C)CO)C(=O)c2cc(NS(=O)(=O)c3ccc(F)cc3)ccc2O[C@@H](C)CCCCO[C@H]1CN(C)C(=O)c1ccccc1` | 5.46 |
| `O=C(C[C@@H]1CC[C@@H]2[C@H](COC[C@H](O)CN2Cc2ccc(Oc3ccccc3)cc2)O1)N1CCN(c2ccccc2)CC1` | -13.7 |
| `O=S(=O)(c1cccs1)N1CCCCN2[C@@H](CO)[C@@H](c3ccc(Br)cc3)[C@@H]2C1` | -6.004 |
| `C[C@H](CO)N1C[C@H](C)[C@H](CN(C)Cc2cccc(C(F)(F)F)c2)OCc2ccccc2-c2c(n(C)c3ccccc23)C1=O` | 3.757 |
| `NCC[C@H]1CC[C@H](NC(=O)NC2CCCCC2)[C@H](CO)O1` | -9.457 |
| `O=C(C[C@@H]1CC[C@H]2[C@@H](COC[C@H](O)CN2Cc2nccs2)O1)N1CCC(Cc2ccccc2)CC1` | -1.721 |
| `COC(=O)[C@@H]1[C@@H](CO)[C@@H]2Cn3c(ccc(C4=CCCCC4)c3=O)[C@@H]2N1CC1CCCCC1` | 0.06216 |
| `O=C(c1cccc(F)c1)N1CCCCN2[C@H](CO)[C@H](c3ccc(C#CC4(O)CCCC4)cc3)[C@@H]2C1` | -17.37 |
| `OC[C@H]1Nc2ccc(C#Cc3ccc(F)cc3)cc2[C@H]2[C@@H]1CCN2Cc1nccs1` | -19.49 |
| `Cc1ccc(-c2ccc([C@@H]3[C@H](CO)N4CCCCN(Cc5ccccn5)C[C@@H]34)cc2)cc1` | -10.3 |
| `O=C(C[C@@H]1C[C@@H]2c3cc(NC(=O)C4CCOCC4)ccc3O[C@@H]2[C@@H](CO)O1)NCc1ccc(Oc2ccccc2)cc1` | -21.38 |
| `O=C(C[C@@H]1C[C@@H]2c3cc(NS(=O)(=O)c4ccc(F)cc4)ccc3O[C@@H]2[C@@H](CO)O1)NCCc1ccccc1` | -7.478 |
| `C/C=C/c1ccc([C@H]2[C@H](CO)N3CCCCN(S(=O)(=O)c4ccc(F)cc4)C[C@@H]23)cc1` | -18.39 |
| `O=C(C1CC1)N1CC2(C1)[C@H](c1ccccc1)[C@@H](CO)N2Cc1ccccc1F` | -17.53 |
| `O=C(C[C@@H]1CC[C@H]2[C@@H](COC[C@H](O)CN2Cc2cc(F)ccc2F)O1)NCc1ccc(Cl)cc1` | -5.756 |
| `CC(=O)N1CCCCN2[C@H](CO)[C@H](c3ccc(-c4cccc(C)c4)cc3)[C@@H]2C1` | 2.876 |
| `COc1ccc(C#Cc2ccc([C@@H]3[C@H]4CN(C(=O)Nc5cccc(F)c5)CCCCN4[C@H]3CO)cc2)cc1` | -9.976 |
| `O=C(C[C@@H]1CC[C@@H]2[C@H](COC[C@H](O)CN2Cc2nccs2)O1)N1CCC(Cc2ccccc2)CC1` | -4.429 |
| `CC(C)[C@@H](C)NC(=O)N(C)C[C@@H]1OCc2ccccc2-c2c(n(C)c3ccccc23)C(=O)N([C@H](C)CO)C[C@@H]1C` | -15.05 |
| `O=C(c1ccccc1)N1CC(=O)N2[C@H](C1)[C@@H](c1ccc(/C=C/c3ccccc3)cc1)[C@@H]2CO` | 7.803 |
| `Cc1ccc(S(=O)(=O)N2CC[C@@H]3[C@@H](CO)N(C)c4ccc(-c5cccc(C#N)c5)cc4[C@@H]32)cc1` | 9.267 |
| `C[C@@H]1CN([C@@H](C)CO)C(=O)c2ccccc2-c2ccccc2CO[C@@H]1CN(C)Cc1ccc(Oc2ccccc2)cc1` | -14.88 |
| `O=C(C[C@H]1CC[C@@H]2[C@H](COC[C@H](O)CN2Cc2ccccc2F)O1)N[C@H]1CCN(Cc2ccccc2)C1` | -5.154 |
| `O=C(Cc1ccccn1)N1CC[C@@H]2[C@H]1c1cc(-c3cccc(F)c3)ccc1N[C@@H]2CO` | -12.97 |
| `Cc1cccc(S(=O)(=O)N2CC[C@@H]3[C@@H](CO)N(C)c4ccc(-c5ccccc5F)cc4[C@@H]32)c1` | -2.17 |
| `CCCN1C[C@H](C)[C@@H](OC)CN(C)C(=O)c2ccc(NC(=O)c3ccc(F)cc3)cc2OC[C@@H]1C` | -9.886 |
| `O=C1CN(S(=O)(=O)Cc2ccccc2)C[C@@H]2[C@@H](c3ccc(C#Cc4ccccc4)cc3)[C@H](CO)N12` | 10.44 |
| `CCCN1[C@H](C(=O)N[C@@H](C)c2ccccc2)[C@@H](CO)[C@@H]2Cn3c(ccc(-c4cccc(F)c4)c3=O)[C@@H]21` | -5.165 |
| `Cc1cccc(-c2ccc([C@H]3[C@@H](CO)N4CCCCN(C(=O)NC(C)C)C[C@@H]34)cc2)c1` | 2.752 |
| `C[C@@H]1CN([C@@H](C)CO)C(=O)c2c(c3ccccc3n2C)-c2ccccc2CO[C@H]1CN(C)C(=O)Nc1cccc(Cl)c1Cl` | 15.7 |
| `CCC(=O)N1CCC2(CC1)CN(Cc1ccccc1Cl)[C@@H](CO)c1c2c2ccc(OC)cc2n1C` | -4.993 |
| `COc1ccccc1NC(=O)N1CCCCN2[C@@H](CO)[C@@H](c3ccc(C#CC4CCCC4)cc3)[C@@H]2C1` | 21.82 |
| `Cc1ccccc1-c1ccc(C2[C@@H]3CN(C(=O)C4CCCCC4)C[C@H]2N3)cc1` (stereo partly shown) | -8.06 |
| `COc1cccc(-c2ccc(C3[C@@H]4CN(Cc5cccc(F)c5)C[C@H]3N4)cc2)c1` (stereo partly shown) | -23.52 |
| `O=C(Nc1ccc(F)cc1)N1CC(=O)N2[C@@H](CO)[C@@H](c3ccc(C#Cc4cccnc4)cc3)[C@@H]2C1` | -8.024 |
| `COc1ccc2c3c(n(C)c2c1)[C@@H](CO)N(C(=O)C1CCOCC1)CC31CN(Cc2cccc(F)c2)C1` | -11.09 |
| `Cc1ccc(-c2ccccc2[C@H]2[C@@H](C#N)N(c3ncc(-c4ccccc4)s3)[C@H]2CO)cc1` | 16.49 |
| `O=C(C[C@H]1CC[C@@H]2[C@H](COC[C@@H](O)CN2Cc2ccc(Cl)cc2)O1)Nc1nccs1` | -10.32 |
| `COc1cccc(-c2ccc([C@H]3[C@@H](CO)N4CCCCN(C(=O)Cc5ccncc5)C[C@@H]34)cc2)c1` | -5.921 |
| `CN(C)C(=O)c1ccc(-c2ccc3c(c2)[C@H]2[C@H](CCN2C(=O)c2ccc4c(c2)OCO4)[C@H](CO)N3)cc1` | -12.51 |
| `COc1ccc2c3c([nH]c2c1)[C@@H](CO)N(Cc1ccccc1)CC31CN(S(C)(=O)=O)C1` | -13.16 |
| `O=C(C[C@@H]1CC[C@H]2[C@@H](COC[C@@H](O)CN2Cc2nccs2)O1)NCc1ccc(Oc2ccccc2)cc1` | -8.225 |
| `C[C@H](CO)N1C[C@H](C)[C@@H](CN(C)C(=O)Nc2cccc(C(F)(F)F)c2)OCc2ccccc2-c2c(n(C)c3ccccc23)C1=O` | -8.758 |
| `C[C@H](CO)N1C[C@H](C)[C@H](CN(C)Cc2ccc(C(F)(F)F)cc2)OCc2cnnn2CCCC1=O` | -7.297 |
| `COCC(=O)N1CC2(C1)CN(Cc1ccccc1F)[C@H](CO)c1[nH]c3cc(OC)ccc3c12` | -7.026 |
| `CC(=O)N1CC2(C1)[C@@H](c1ccc(-c3ccc(F)cc3)cc1)[C@@H](CO)N2CC1CC1` | -2.055 |
| `COc1ccc2c3c(n(C)c2c1)[C@H](CO)NCC31CN(C(=O)c2cccc(F)c2)C1` | -24.33 |
| `CN(C)C(=O)[C@@H]1[C@@H](CO)[C@@H]2Cn3c(ccc(-c4ccccc4)c3=O)[C@H]1N2C(=O)C1CC1` | -9.883 |
| `N#Cc1cccc(-c2ccc(C3[C@@H]4CN(S(=O)(=O)c5ccccc5F)C[C@H]3N4)cc2)c1` (stereo partly shown) | -4.914 |
| `O=C(Nc1ccc(F)cc1)N1CCCCN2[C@H](C1)[C@@H](c1ccc(-c3cccc(F)c3)cc1)[C@@H]2CO` | -6.121 |

Once more, the final 5:

SMILES,Gaussia minus Italica difference (%)
CC(=O)N1CC2(C1)[C@@H](c1ccc(-c3ccc(F)cc3)cc1)[C@@H](CO)N2CC1CC1,-2.055
COc1ccc2c3c(n(C)c2c1)[C@H](CO)NCC31CN(C(=O)c2cccc(F)c2)C1,-24.33
CN(C)C(=O)[C@@H]1[C@@H](CO)[C@@H]2Cn3c(ccc(-c4ccccc4)c3=O)[C@H]1N2C(=O)C1CC1,-9.883
N#Cc1cccc(-c2ccc(C3[C@@H]4CN(S(=O)(=O)c5ccccc5F)C[C@H]3N4)cc2)c1 (stereo partly shown),-4.914
O=C(Nc1ccc(F)cc1)N1CCCCN2[C@H](C1)[C@@H](c1ccc(-c3cccc(F)c3)cc1)[C@@H]2CO,-6.121

The results are deposited in PubChem (AID1224904; Broad Institute, 2016).